In the supplement of paper PMC3334620:
Over roughly 33,000 sequences, “E-score (-0.5 to 0.5)” has its median near -0.015; the highest 2% begin near 0.3. Some of the results follow.

Molecular target: T1, Abf1 (UniProt P14164)
T1 sequence: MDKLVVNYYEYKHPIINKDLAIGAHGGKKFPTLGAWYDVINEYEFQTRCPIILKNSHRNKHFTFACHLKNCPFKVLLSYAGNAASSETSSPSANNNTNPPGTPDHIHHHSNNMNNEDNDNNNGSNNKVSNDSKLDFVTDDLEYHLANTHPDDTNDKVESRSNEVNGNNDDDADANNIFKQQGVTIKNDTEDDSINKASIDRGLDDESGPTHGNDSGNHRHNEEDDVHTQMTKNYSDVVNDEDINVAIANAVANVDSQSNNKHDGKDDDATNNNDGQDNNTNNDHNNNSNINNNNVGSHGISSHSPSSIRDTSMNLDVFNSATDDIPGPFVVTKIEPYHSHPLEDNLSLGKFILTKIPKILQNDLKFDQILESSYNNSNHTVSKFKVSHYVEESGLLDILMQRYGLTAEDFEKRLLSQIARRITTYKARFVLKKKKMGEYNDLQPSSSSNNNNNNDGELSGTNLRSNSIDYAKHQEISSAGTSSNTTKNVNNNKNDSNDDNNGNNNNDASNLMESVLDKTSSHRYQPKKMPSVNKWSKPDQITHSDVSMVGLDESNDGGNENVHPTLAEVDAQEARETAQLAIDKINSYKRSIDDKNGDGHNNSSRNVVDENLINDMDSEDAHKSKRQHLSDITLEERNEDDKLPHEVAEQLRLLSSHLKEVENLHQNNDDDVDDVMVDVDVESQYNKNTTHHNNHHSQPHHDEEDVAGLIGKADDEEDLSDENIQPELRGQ
Test: PBM E-score (8-mer binding enrichment) (E-score (-0.5 to 0.5)); higher = stronger / more preferred TF binding
Conditions: protein concentration: 200 nM; construct: GST-full length
Method: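 Universal 'all 10-mer' protein binding microarrays (Agilent AMADID 015681) probed with GST-tagged S. cerevisiae TFs (full-length or DBD) made by in vitro transcription/translation (PURExpress), about 100-200 nM. Bound TF was detected with fluorescent anti-GST. Each ungapped 8-mer (which stands for itself and its reverse complement) is scored by the PBM enrichment score (E-score), a modified Wilcoxon-Mann-Whitney statistic from -0.5 to +0.5, computed with the Universal PBM Analysis Suite. Scale: above 0.35 generally sequence-specific binding.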

Sequence	PBM E-score
ACTACACA	0.0566
CAGATGGA	0.00822
CGCGATAA	0.275
GCACTATA	0.017
AACGACCC	0.0599
ATGTCTGC	-0.0313
TCGCGTCA	0.033
CCCGGAGC	-0.202
GTCCATTA	0.144
GCACACCA	-0.138
ATTCTTCC	-0.152
CCCACTCC	-0.263
AAGCCACA	-0.0117
CATCTCCG	0.00984
CCGCCATA	-0.072
ATCGGGCA	0.126
ACATTCAT	0.109
AGCCAGGA	-0.0571
CGGTGGTC	-0.0612
TCAAACCA	0.136
ACCAGCAG	-0.125
CACTCTAC	0.178
GCGGAGCC	-0.0789
GTATTAGA	0.206
TGCAACAA	0.0357

Sequence	PBM E-score
GGCTCACC	-0.197
CATGCTAG	-0.00334
ATACCACC	0.0401
CATATGTC	0.0792
ATAAGATG	0.201
GCTCAAAA	-0.0054
ACTTGGGA	-0.141
AATTCAAG	-0.0702
CTTGCTCC	-0.00563
GTCGACTA	0.0964
GGTTCTAC	-0.00083
CTCTATCC	-0.0626
GGCATGCC	-0.0767
TTATTAAA	0.116
CTCATGCA	0.0123
CATGCTGC	-0.117
CTGATAGA	0.0446
AAAGACCT	-0.0826
AGATTCGA	-0.0332
GATTGATA	0.00544
ATTTTCTC	0.0904
AGTAGCCA	-0.0787
CTCAAGTC	0.0472
AACGGGGC	-0.0372
CCCTTATA	-0.0912

Sequence	PBM E-score
AAGGAAAG	-0.135
CGTAGTCC	-0.0426
AAGGTGCA	-0.0988
AATATGGT	0.121
ATAGGACC	-0.195
AAACGCCA	-0.0437
CTTGTGAA	0.0464
AACGTCAA	0.173
GATGGGCA	-0.0389
GGTTCCTA	-0.115
ACAAGAGG	-0.239
ACAGTCCA	-0.116
TAATGCTA	0.125
CAAGTCAA	-0.0911
GTGGCTCA	-0.195
AGCTTGAG	-0.1
CCGCGGCA	-0.0823
CAACCATG	-0.122
AAAGCACC	0.0912
ATCTGTGA	0.154
CGTATGAG	0.189
CGCTTCCC	-0.1
TAGTAGCA	0.0359
AAAATCTG	0.1
ATCTCCAG	0.0729

Sequence	PBM E-score
CCTCTCCC	-0.261
ATCGATGA	0.255
CGTAAGGA	0.107
AGAGTTCG	0.134
GTGACGTA	0.296
AGTTCCAG	-0.159
CCTCAGAA	-0.0676
CACTGATA	-0.056
CAGGCCTA	-0.0367
AGTGCCGC	-0.161
ACCTACGA	0.145
CCAGTCGC	-0.12
CCCCAACA	-0.245
GCACAAAC	-0.167
CCTGAAGG	-0.266
CGCCCCGA	-0.169
AGGTTAAG	-0.128
GATGGGAA	-0.127
CAGACGCA	-0.202
CATCGATC	0.0492
AGATGAAA	-0.0632
CTAGCGAA	-0.197
CGGTAACG	-0.04
GGCGAGCC	-0.23
CGGCCTAA	-0.0583

Sequence	PBM E-score
CAGGTAAA	-0.0916
GGTTGACA	-0.0254
ACATAACT	0.0117
CACACCGA	0.0376
ATCGAAGC	-0.0766
ACAGGGAT	-0.188
GCTGAGCC	-0.115
AGAAAATG	0.217
AGCTTCAG	-0.242
AAGAAAGG	0.0224
CATGCGAG	-0.0409
CAGGGACC	-0.252
CGTCGTTC	0.313
ACCAACCA	-0.0377
CTTCCGTC	0.00848
CATGAGAA	0.167
CCTGGGTA	-0.291
AGCCCCAT	-0.228
CCATGGGA	-0.292
CCATTCAC	-0.0768
AAAACCCT	0.00394
CCGGGGCA	-0.165
CTTGCTAA	-0.0609
ACTCGGCG	-0.0974
CCCATTAC	-0.103

Sequence	PBM E-score
GGGCCGAC	0.0732
CCATCTAG	-0.0382
CGTTTACA	0.102
GATACTGA	0.15
GCTGCTAC	-0.0937
CCACCAAA	-0.22
AGTGAAGG	-0.145
ACCAAGAT	-0.106
ACCGTATG	0.27
AATGTGGA	0.144
CATTCAGG	-0.227
CATAGGGC	-0.307
GACGGGTA	0.00211
ACAGGCAA	0.0828
GCCAAAGA	0.0968
GTGAAGCA	0.0833
ATTGCCAA	0.00135
AGAGCGGC	-0.0944
ATATGATC	0.0976
GAATGCGC	0.0991
CGGTGTGA	-0.00412
CCTGGGGA	-0.246
ATGACTAA	0.146
CAAGAGCG	-0.204
ACCGATGC	-0.104

Sequence	PBM E-score
GTAGACAC	-0.126
GCGGGCAC	-0.0439
CAGGGGCC	-0.169
ACTCGAGA	-0.0317
GCCCTTAC	-0.274
ACCACCAG	-0.112
CTATAAGA	0.0466
TCGAAACA	0.202
CTTCCAGC	-0.224
TCCGTCGA	0.213
GTCATCGA	0.232
CTCCTCAG	-0.29
CGGAGGTA	-0.0628
ATGCTTTA	-0.0839
TCCTGCGA	0.0815
GGCGCGCA	-0.106
CTTGTAAC	0.161
AGGTTACG	-0.0223
CTCGAGTA	0.0248
AGCTTTTC	-0.112
AGAGGTCG	0.0547
TACGAGGA	0.209
AATACTTA	0.217
GTAAGCAA	0.0905
ACATTAGT	-0.163

A portion from further up, for reference:
Sequence	PBM E-score
AGAAAATG	0.217
AGCTTCAG	-0.242
AAGAAAGG	0.0224
CATGCGAG	-0.0409
CAGGGACC	-0.252
CGTCGTTC	0.313
ACCAACCA	-0.0377
CTTCCGTC	0.00848
CATGAGAA	0.167
CCTGGGTA	-0.291
AGCCCCAT	-0.228
CCATGGGA	-0.292
CCATTCAC	-0.0768
AAAACCCT	0.00394
CCGGGGCA	-0.165
CTTGCTAA	-0.0609
ACTCGGCG	-0.0974
CCCATTAC	-0.103
GGGCCGAC	0.0732
CCATCTAG	-0.0382
CGTTTACA	0.102
GATACTGA	0.15
GCTGCTAC	-0.0937
CCACCAAA	-0.22
AGTGAAGG	-0.145
ACCAAGAT	-0.106
ACCGTATG	0.27
AATGTGGA	0.144
CATTCAGG	-0.227
CATAGGGC	-0.307
GACGGGTA	0.00211
ACAGGCAA	0.0828
GCCAAAGA	0.0968
GTGAAGCA	0.0833
ATTGCCAA	0.00135
AGAGCGGC	-0.0944
ATATGATC	0.0976
GAATGCGC	0.0991
CGGTGTGA	-0.00412
CCTGGGGA	-0.246
ATGACTAA	0.146
CAAGAGCG	-0.204
ACCGATGC	-0.104
GTAGACAC	-0.126
GCGGGCAC	-0.0439
CAGGGGCC	-0.169
ACTCGAGA	-0.0317
GCCCTTAC	-0.274
ACCACCAG	-0.112
CTATAAGA	0.0466
TCGAAACA	0.202
CTTCCAGC	-0.224
TCCGTCGA	0.213
GTCATCGA	0.232
CTCCTCAG	-0.29
CGGAGGTA	-0.0628
ATGCTTTA	-0.0839
TCCTGCGA	0.0815
GGCGCGCA	-0.106
CTTGTAAC	0.161
AGGTTACG	-0.0223
CTCGAGTA	0.0248
AGCTTTTC	-0.112
AGAGGTCG	0.0547
TACGAGGA	0.209
AATACTTA	0.217

Following part.

Sequence	PBM E-score
CCGCAGTA	-0.128
CTGACATC	-0.0102
ATTTCAGC	-0.0147
TAATTCGA	0.0406
ATACTTAA	0.219
CTTTTGGC	0.00509
AATGCAAC	0.0165
CAGTTTAA	-0.0202
ACCTGGGA	0.00969
GAGGTACC	-0.109
AAGTGGTC	-0.131
CTGCCATC	-0.154
CGACACCC	0.0181
AGAAGTAA	0.0849
ATTCTGTA	0.14
ACCCGCTA	-0.184
AAATTATG	0.226
CGCATCTA	0.0129
CATGTCCC	-0.0216
GATCAGCC	-0.167
TGCAATAA	0.0784
CCGTTAAG	0.188
CGGTAGAA	-0.103
ATTGACGG	0.211
CGGATTGA	0.101

Sequence	PBM E-score
AACGTGAC	0.0896
AGCGGATC	-0.169
AGTTTGGG	-0.236
AATCAGTG	-0.0316
AATGATGC	0.196
AGCAAAAC	0.0483
GGTCCACC	-0.0604
AGCAACAC	-0.0691
CAGGGTAG	-0.0412
AGTCTACG	0.0566
GTCCAGAC	-0.164
AGCTATCA	0.144
GTAGGGTA	0.0591
ACTCCCGA	-0.0354
AACGGTAA	0.0165
GAAAGAAA	0.215
GCTACTGA	-0.031
CCTGCAAA	-0.134
CAGTGACC	0.132
CCGGGCTA	-0.222
CTAGTCAC	0.133
GTAAGCAC	-0.102
TACAAGAA	0.0257
AACTACCC	-0.109
ATACGTGC	-0.17

Sequence	PBM E-score
CACAGGTG	-0.0741
CTGCCCAA	-0.158
GTTGACAA	0.16
AGATTTAA	0.131
AAGGTAGA	-0.117
CGTCCCAC	0.0413
AATCGTAG	0.197
CTAAGGCA	-0.0416
ACACGCGC	0.00628
CCGCACAA	-0.205
AAAGAATT	0.0713
ATGCACCG	0.0676
CTCGAATA	-0.0536
GAGTTGCA	-0.22
CAATAGCC	-0.0912
CTAGGAGC	-0.198
AATCGACT	-0.0845
GATTCATA	0.1
CAAAGAGG	-0.0721
GACACGAC	0.169
CCTAGCAA	-0.141
CCTCGCTC	0.135
TGGTTCAA	0.0256
ACGTGACT	0.174
AGCTGTAG	-0.272

Sequence	PBM E-score
ATGTGGGG	-0.303
CGACCGCA	0.0407
AAGATGAT	0.304
AATGACTA	0.222
GAGGTGGC	-0.18
ACTATAAG	0.0261
ACATTGGT	0.00762
GCCCCCAA	-0.397
GGTAGAAC	-0.00934
TGGATTAA	-0.0745
AATTTACC	-0.137
GTGCTAAC	0.0573
CGCTGACA	0.0943
GGCTTGCA	-0.0401
CTCCCGTA	0.118
AGCCGAAA	-0.131
GAACTGAA	-0.00954
GCACTTAC	-0.12
TAAGGACA	0.103
AGTCCGGC	-0.0997
CGTGCCTC	-0.00277
CCACAATC	-0.0961
ATCATATA	0.19
CTCCTATA	-0.124
ACGGACCA	0.147

Sequence	PBM E-score
ACAATGCT	-0.0572
CTGACACC	-0.0573
ACGTCTGA	0.139
CAGGAAGA	-0.051
ACATAGAG	-0.0346
ATCGTGTC	0.235
CAGAGAAA	0.11
AAGTCGGC	-0.173
ACCAGTCG	0.0461
AATTTACG	0.0813
GAGATGCA	0.015
ATGCTGGG	-0.123
AGGCGAAT	-0.0388
GGTACGAA	0.339
GCTCACAC	0.0118
CGCTTGAA	0.168
CAATCCCA	-0.188
ATACATGG	0.0959
AAACAATC	0.176
ATCAGAGG	-0.143
ATTAATGA	0.212
ACGTGAGG	0.00809
AAACTTTC	-0.00933
AAGGAGCC	-0.316
AGGGGCGC	-0.187

Sequence	PBM E-score
ACAGGCGT	-0.316
ATCTTTAA	0.21
ACTTATAT	0.229
CGGTGTTC	0.0262
CTTTGATA	0.143
AGGAGGAG	-0.242
CAAAGCAG	-0.0491
AAAGCCCC	-0.254
CCATGCTC	-0.117
CAAAAGAA	0.245
CTCTGTGC	-0.127
CAAGATTA	0.0781
CTTGTCTC	0.0139
GCTTTCGA	-0.208
AGTACACA	0.00416
TCTCGACA	-0.0601
CTGGTTTA	0.0226
CACCTAAC	-0.0284
ATGTCAGG	-0.133
CCCGAGGA	-0.174
ATTGTTTC	0.136
CCACTTCG	-0.155
CAACTGTA	-0.0398
AACAGCTG	-0.0093
AACTGCAC	0.0507

Sequence	PBM E-score
GCTGAAGA	-0.133
AGAGAAAG	-0.0977
CGACGCAG	0.0943
TCCCGTAA	-0.0415
AGATTGTG	0.0417
ATTTGCTC	-0.0177
CAGCTACC	-0.119
ATTGCTCA	0.0967
CAATCCGG	-0.145
TAAAGGTA	-0.131
CACTAAAG	-0.0439
CTTTGATC	-0.0484
ATTACAAC	0.0241
ATACCTCA	-0.00813
CAGCGGAC	-0.105
AAGACAAA	0.127
CAGCCCTG	-0.0768
ACTTCCTC	-0.286
CTGGATTC	-0.0455
